Measured values reported in PubChem BioAssay AID588590 (National Center for Advancing Translational Sciences (NCATS), 2011).
In all, about 390,000 compounds went through this assay and about 4,000 (1%) were called active. Inconclusive results, whose numbers are uncertain, are shown with a selection of clear calls. Calls follow the shape of the dose curve; as a rule, active = well fitted inhibition curve with a large enough effect; inconclusive = small, poorly fitted or top-dose-only effect, or another doubt; inactive = no such curve, though single readings can be large or run the other way. A potency beside an inconclusive call is a rough fit, not a confirmed value.

Amino acid sequences for entries named in this document (tags omitted). A change or cut given only in a name is not applied to a line headed by its entry.
UniProt Q9UNA4: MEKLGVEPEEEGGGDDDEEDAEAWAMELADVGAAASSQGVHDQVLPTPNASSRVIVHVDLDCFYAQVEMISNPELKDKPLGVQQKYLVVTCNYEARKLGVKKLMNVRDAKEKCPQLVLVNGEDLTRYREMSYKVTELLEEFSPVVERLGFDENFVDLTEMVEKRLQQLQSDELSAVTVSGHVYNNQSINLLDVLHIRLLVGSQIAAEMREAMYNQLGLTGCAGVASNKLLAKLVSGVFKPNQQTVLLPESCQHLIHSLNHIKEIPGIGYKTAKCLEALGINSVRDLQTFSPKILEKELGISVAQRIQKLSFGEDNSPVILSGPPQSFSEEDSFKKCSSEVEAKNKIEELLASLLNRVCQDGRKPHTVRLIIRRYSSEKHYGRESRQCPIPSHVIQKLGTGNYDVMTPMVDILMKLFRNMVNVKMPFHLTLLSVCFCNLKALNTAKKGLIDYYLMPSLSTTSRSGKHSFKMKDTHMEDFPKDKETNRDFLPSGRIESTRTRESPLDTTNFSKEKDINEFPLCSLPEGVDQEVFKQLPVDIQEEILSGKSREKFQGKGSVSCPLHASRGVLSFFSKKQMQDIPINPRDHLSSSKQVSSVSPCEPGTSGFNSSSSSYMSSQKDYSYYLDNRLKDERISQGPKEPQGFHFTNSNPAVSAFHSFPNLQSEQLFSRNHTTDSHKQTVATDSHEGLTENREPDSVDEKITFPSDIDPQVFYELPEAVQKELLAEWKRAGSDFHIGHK

target: DNA polymerase iota (Homo sapiens) (UniProt Q9UNA4); test: qHTS for Inhibitors of Polymerase Iota; conditions: Pol iota fluorescent replication assay, 10 min; series mostly up to 115 µM; activity, negative = inhibition: at the top concentration
How it was run: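 Fluorescent replication assay read twice, at 0 min and 10 min after adding 50 nM (final) substrate. Enzyme (10 nM) and compounds were first incubated 15 min at room temperature; enzyme-free buffer wells were negative controls.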
Potency is read from the fitted curve at half-maximal effect.

**Q.** For `O=C(O)c1ccc(N2C(=O)/C(=C/c3ccc(-c4ccc([N+](=O)[O-])cc4)o3)C=C2c2ccccc2)cc1`, which Potency is on record?
**A.** inconclusive: 3.55 µM [inhibitor, full curve, poor fit]

**Q.** For `Cc1ccccc1NC(=O)N1CCN(C(=O)c2ccco2)CC1`, which Potency is on record?
**A.** inconclusive: 89.1 µM [inhibitor, single point]

**Q.** `O=C(O)CSc1c2c(nc3cc(C(=O)Nc4ccc(F)c(Cl)c4)ccc13)CCCC2` was tested. Which Potency did it give?
**A.** inconclusive: 14.1 µM [inhibitor, partial curve]

**Q.** `Cc1ncc([N+](=O)[O-])n1CCOC(=O)c1cc(Cl)cc(Cl)c1N` was tested. Which Potency did it give?
**A.** inconclusive: 12.6 µM [inhibitor, full curve, poor fit]

**Q.** Which Potency does the source give for `Cc1ccccc1Cn1c(=O)c2c(nc3n2CCN3Cc2ccco2)n(C)c1=O` here?
**A.** inconclusive: 70.8 µM [inhibitor, partial curve]

**Q.** With `COC(=O)C1=C(O)/C(=C\c2ccc(CNC(=O)C(=O)Nc3ccc(C)c(C)c3)o2)N=C1C` as the compound, how does the Potency read?
**A.** inconclusive: 11.2 µM [inhibitor, partial curve, poor fit]

**Q.** Which “activity, negative = inhibition” value does the source give for `CCCN(CCC)Cc1c(C(=O)N/N=C/c2ccncc2)nnn1-c1nonc1N` here?
**A.** inactive: 30.1%

**Q.** For `Cc1cc(=O)oc2cc(OCC(=O)NC3CC(C)(C)NC(C)(C)C3)ccc12`, which Potency is on record?
**A.** inconclusive: 89.1 µM [inhibitor, single point]

**Q.** `COc1ccc(CNC(=O)c2cc3cccc4c3n2CC(C)S4)cc1` (configuration not stated) was tested. Which “activity, negative = inhibition” value did it give?
**A.** inactive: 30.4%

**Q.** With `Cc1ccc(-c2nnc(-c3cccc(Br)c3)o2)cc1` as the compound, how does the Potency read?
**A.** inconclusive: 39.8 µM [inhibitor, partial curve, poor fit]

**Q.** Which “activity, negative = inhibition” value does the source give for `COc1ccc(OC)c(N(C)S(=O)(=O)c2ccc3c(c2)NC(=O)CC(=O)N3)c1` here?
**A.** inactive: 30.5%

**Q.** `O=C(Nc1ccc(NC(=O)C2CC2)cn1)c1ccccc1` was tested. Which “activity, negative = inhibition” value did it give?
**A.** inactive: -15.6%

**Q.** With `C[C@@H](C(=O)OCC(=O)NCCc1ccc(S(N)(=O)=O)cc1)N1C(=O)C2CCCCC2C1=O` (some centres not stated) as the compound, how does the Potency read?
**A.** inconclusive: 79.4 µM [inhibitor, single point]

**Q.** For `CCOC(=O)CSc1nc2c(sc(=S)n2-c2ccc(OCC)cc2)c(=O)[nH]1`, which “activity, negative = inhibition” value is on record?
**A.** inactive: 22.9%

**Q.** For `CC(C)CCNC(=S)Nc1ccc(Br)cc1`, which Potency is on record?
**A.** inconclusive: 56.2 µM [inhibitor, partial curve, poor fit]

**Q.** How did the Potency turn out when `CCCCNc1c(-c2cccc(-c3cc(C(C)=O)cs3)c2)nc2cc(C)ccn12` was run?
**A.** inconclusive: 20 µM [inhibitor, full curve]

**Q.** For `NC(=O)C1CCN(CC(=O)Nc2nccs2)CC1`, which Potency is on record?
**A.** active: 89.1 µM

**Q.** Which Potency does the source give for `O=C(O)c1ccc(C=C(c2nc3ccccc3s2)c2nc3ccccc3s2)cc1` here?
**A.** inconclusive: 25.1 µM [inhibitor, partial curve, poor fit]

**Q.** `COc1ccccc1-c1cc(C(=O)NCCN2CCOCC2)no1` was tested. Which Potency did it give?
**A.** inconclusive: 89.1 µM [inhibitor, single point]

**Q.** With `Cn1c(=O)c2c(-c3ccccc3Cl)n(Cc3ccc(Cl)cc3)cc2n(C)c1=O` as the compound, how does the Potency read?
**A.** inconclusive: 89.1 µM [inhibitor, single point]

**Q.** How did the Potency turn out when `C[C@@H]1O[C@@H](O[C@H]2[C@H](O)[C@@H](O)[C@H](Oc3c(-c4ccc(O)cc4)oc4cc(O)cc(O)c4c3=O)O[C@@H]2CO)[C@H](O)[C@H](O)[C@H]1O` was run?
**A.** inconclusive: 56.2 µM [inhibitor, single point]

**Q.** How did the Potency turn out when `OCC1(CCc2ccccc2)CCN(C/C=C/c2ccccc2)CC1` was run?
**A.** inconclusive: 89.1 µM [inhibitor, single point]

**Q.** Which “activity, negative = inhibition” value does the source give for `COc1ccc(-c2nc3c(C#N)c[nH]n3c2NC2CCCC2)cc1` here?
**A.** inactive: 10.4%

**Q.** For `Cc1cc(=O)n2[nH]c(=O)c(N=Nc3ccccc3)c2[nH]1`, which Potency is on record?
**A.** inconclusive: 11.2 µM [inhibitor, full curve, poor fit]

**Q.** With `O=[N+]([O-])c1ccc(O)c(C=NNc2ccc(S(=O)(=O)O)cc2)c1` as the compound, how does the Potency read?
**A.** active: 22.4 µM

**Q.** With `CN(Cc1c(F)cccc1Cl)C(=O)c1cc2ccccc2o1` as the compound, how does the Potency read?
**A.** inconclusive: 50.1 µM [inhibitor, partial curve]

**Q.** How did the “activity, negative = inhibition” value turn out when `CCOc1ccc(CNCc2c(C(=O)O)n(Cc3ccc(OC)cc3)c3ccccc23)cc1` was run?
**A.** inactive: -15.5%

**Q.** Which “activity, negative = inhibition” value does the source give for `Cc1ccc(N2CC(c3nnc(Cc4ccccc4Cl)o3)CC2=O)cc1` (configuration not stated) here?
**A.** inactive: -8.99%

**Q.** `CN(C)S(=O)(=O)c1cccc(NC(=S)N/N=C/c2cc(Br)ccc2O)c1` was tested. Which “activity, negative = inhibition” value did it give?
**A.** inactive: 39.5%

**Q.** With `COc1ccc(NC(=O)c2cc(S(=O)(=O)N3CCCCC3)c[nH]2)cc1` as the compound, how does the Potency read?
**A.** inconclusive: 39.8 µM [inhibitor, partial curve, poor fit]

**Q.** For `OC(c1ccccc1)C(CN1CCOCC1)c1ccccc1` (configuration not stated), which Potency is on record?
**A.** inconclusive: 56.2 µM [inhibitor, partial curve]

**Q.** `Cc1ccc(N2Cc3ccccc3C2=O)cc1` was tested. Which Potency did it give?
**A.** inconclusive: 7.94 µM [inhibitor, partial curve, poor fit]

**Q.** For `CC(NC(=O)c1ccc(Cn2c(=O)c3cccn3c3cccnc32)cc1)c1ccccc1` (configuration not stated), which “activity, negative = inhibition” value is on record?
**A.** inactive: 4.15%

**Q.** `O=C(CN(CC1CCCO1)C(=O)CCC(=O)Nc1ccccn1)NCC1CCCO1` (configuration not stated) was tested. Which “activity, negative = inhibition” value did it give?
**A.** inactive: 19.3%

**Q.** With `Cc1ccc(C)c(Nc2nc3c(S(=O)(=O)c4ccc(Br)cc4)nnn3c3ccsc23)c1` as the compound, how does the Potency read?
**A.** active: 44.7 µM

**Q.** With `O=C(CCN1C(=O)/C(=C\C=C\c2ccccc2)SC1=S)Nc1ccc(C(=O)O)cc1` as the compound, how does the Potency read?
**A.** inconclusive: 17.8 µM [inhibitor, full curve, poor fit]

**Q.** Which Potency does the source give for `O=C(NCc1ccco1)c1c2c(nc3ccccc13)CCC2` here?
**A.** active: 8.91 µM

**Q.** For `O=C(COc1ccc([N+](=O)[O-])cc1)NNC(=O)Nc1ccc([N+](=O)[O-])cc1`, which Potency is on record?
**A.** inconclusive: 89.1 µM [inhibitor, partial curve, poor fit]

**Q.** With `C=CCN(c1ccccc1)S(=O)(=O)c1cccc(C(=O)Nc2ccncc2)c1` as the compound, how does the “activity, negative = inhibition” value read?
**A.** inactive: 18.4%

**Q.** `N#C/C(=C/c1ccc(N2CCCCC2)o1)c1cccc(F)c1` was tested. Which Potency did it give?
**A.** inconclusive: 17.8 µM [inhibitor, partial curve, poor fit]

**Q.** For `O=S(=O)(Nc1ccc(Cc2ccncc2)cc1)N1CCCC1`, which Potency is on record?
**A.** inconclusive: 3.98 µM [inhibitor, full curve, poor fit]

**Q.** With `CCc1ccc2oc(-c3cccc(NC(=O)C(C)(C)Oc4ccc(Br)cc4)c3)nc2c1` as the compound, how does the Potency read?
**A.** inconclusive: 79.4 µM [inhibitor, partial curve]
